Assay results as given in the supplement of paper PMC10849652.
The other results are listed elsewhere or left out.

Protein sequences, listed by entry. Tags and fused reporters are not part of them. Lines headed by an entry give the natural chain unless they say otherwise; changes in a name come on top.
UniProt O95197: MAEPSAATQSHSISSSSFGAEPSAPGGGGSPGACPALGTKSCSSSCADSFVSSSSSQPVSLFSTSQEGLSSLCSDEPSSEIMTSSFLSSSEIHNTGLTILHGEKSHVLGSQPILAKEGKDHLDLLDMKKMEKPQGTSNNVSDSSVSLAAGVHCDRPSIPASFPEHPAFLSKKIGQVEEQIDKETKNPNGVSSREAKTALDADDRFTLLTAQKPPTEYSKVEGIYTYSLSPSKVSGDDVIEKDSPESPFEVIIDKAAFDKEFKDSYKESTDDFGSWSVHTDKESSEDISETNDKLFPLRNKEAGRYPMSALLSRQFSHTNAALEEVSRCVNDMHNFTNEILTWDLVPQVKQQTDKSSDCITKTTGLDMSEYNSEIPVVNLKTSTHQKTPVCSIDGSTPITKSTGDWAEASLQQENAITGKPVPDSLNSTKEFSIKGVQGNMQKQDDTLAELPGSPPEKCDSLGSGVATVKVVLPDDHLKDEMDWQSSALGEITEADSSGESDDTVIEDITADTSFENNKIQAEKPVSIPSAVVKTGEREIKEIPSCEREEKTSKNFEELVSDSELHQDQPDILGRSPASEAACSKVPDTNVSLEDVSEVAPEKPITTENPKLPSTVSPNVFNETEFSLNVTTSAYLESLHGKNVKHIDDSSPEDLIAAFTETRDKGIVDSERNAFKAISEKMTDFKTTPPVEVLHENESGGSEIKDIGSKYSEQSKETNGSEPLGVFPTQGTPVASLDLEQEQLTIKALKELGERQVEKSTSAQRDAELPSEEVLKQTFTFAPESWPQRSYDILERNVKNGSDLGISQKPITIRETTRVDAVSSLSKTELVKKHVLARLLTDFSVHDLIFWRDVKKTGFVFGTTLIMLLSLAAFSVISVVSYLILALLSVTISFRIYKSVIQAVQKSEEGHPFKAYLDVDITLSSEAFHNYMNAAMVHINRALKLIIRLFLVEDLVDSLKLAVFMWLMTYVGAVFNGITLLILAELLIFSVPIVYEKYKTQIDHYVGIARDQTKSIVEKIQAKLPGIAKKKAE
UniProt Q7L099: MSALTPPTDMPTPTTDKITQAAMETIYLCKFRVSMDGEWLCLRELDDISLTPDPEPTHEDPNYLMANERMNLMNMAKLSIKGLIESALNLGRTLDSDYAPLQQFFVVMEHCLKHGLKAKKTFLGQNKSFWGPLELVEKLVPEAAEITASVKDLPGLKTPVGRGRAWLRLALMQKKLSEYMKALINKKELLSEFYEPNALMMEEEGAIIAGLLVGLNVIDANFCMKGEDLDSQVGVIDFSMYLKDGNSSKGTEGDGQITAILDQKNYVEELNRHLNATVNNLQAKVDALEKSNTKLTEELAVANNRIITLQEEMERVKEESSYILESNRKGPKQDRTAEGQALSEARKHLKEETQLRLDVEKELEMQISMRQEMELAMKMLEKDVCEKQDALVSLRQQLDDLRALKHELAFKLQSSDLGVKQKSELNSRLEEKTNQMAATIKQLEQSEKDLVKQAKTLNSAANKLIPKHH
UniProt Q8N488: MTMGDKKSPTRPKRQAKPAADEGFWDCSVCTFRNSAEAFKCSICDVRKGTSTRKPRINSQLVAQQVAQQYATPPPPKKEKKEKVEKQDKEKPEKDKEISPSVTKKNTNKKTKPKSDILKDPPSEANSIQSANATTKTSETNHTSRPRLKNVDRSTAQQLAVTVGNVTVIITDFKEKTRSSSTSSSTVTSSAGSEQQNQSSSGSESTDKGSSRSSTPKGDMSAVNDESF
UniProt Q7L3V2: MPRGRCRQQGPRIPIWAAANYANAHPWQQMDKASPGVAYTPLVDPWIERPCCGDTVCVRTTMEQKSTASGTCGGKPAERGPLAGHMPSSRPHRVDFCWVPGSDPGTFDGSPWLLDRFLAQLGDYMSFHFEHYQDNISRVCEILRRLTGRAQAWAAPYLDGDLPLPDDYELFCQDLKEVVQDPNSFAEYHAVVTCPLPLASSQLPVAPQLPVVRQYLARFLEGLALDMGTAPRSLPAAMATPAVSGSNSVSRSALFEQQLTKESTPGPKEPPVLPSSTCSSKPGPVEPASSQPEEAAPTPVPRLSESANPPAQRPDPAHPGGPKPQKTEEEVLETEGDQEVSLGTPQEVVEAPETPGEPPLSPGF
UniProt O95059: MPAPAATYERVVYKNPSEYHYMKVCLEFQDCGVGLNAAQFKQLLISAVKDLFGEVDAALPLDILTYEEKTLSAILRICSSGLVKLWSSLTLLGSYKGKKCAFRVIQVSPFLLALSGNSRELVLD

Legend:
Test in all cases: log2 fold change, soluble protein after heating vs DMSO (PISA); higher = thermal stabilisation; K562 lysate, 10 uM; active = over 0.2 and 3.5 SD of the protein, either way, in both replicates (recomputed)
alvocidib = compound: CN1CC[C@H](c2c(O)cc(O)c3c(=O)cc(-c4ccccc4Cl)oc23)[C@H](O)C1 [alvocidib]
Method in brief: (§1)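 The values are log-two fold changes in thermal stability compared with solvent controls and come from duplicates. They were obtained by TMTpro 16plex LC-MS/MS, with channel sums equalised, on the supernatant after 21,000xg for 90 min. That supernatant came from crude K562 extract at 1 mg/mL protein treated with 10 μM compound for 30 min, heated for 3 min across 48°C-58°C, pooled and brought to 0.5% NP-40 at 4°C.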

Tubastatin A = compound: CN1CCc2c(c3ccccc3n2Cc2ccc(C(=O)NO)cc2)C1 [Tubastatin A]
Method in brief: as §1

[1] = compound: CNC(=O)C1=CC=CC=C1NC2=NC(=NC=C2Cl)NC3=C(C=C(C=C3)N4CCOCC4)OC
Method in brief: as §1

defactinib = compound: CNC(=O)c1ccc(Nc2ncc(C(F)(F)F)c(NCc3nccnc3N(C)S(C)(=O)=O)n2)cc1 [defactinib]
Method in brief: as §1

[2] = compound: CNc1nc(-c2ccc3c(N)n[nH]c3c2)cc(N2C[C@@H](C(=O)NC3CCCCC3)CC[C@H]2C)n1
Method in brief: as §1

encorafenib = compound: COC(=O)N[C@@H](C)CNc1nccc(-c2cn(C(C)C)nc2-c2cc(Cl)cc(NS(C)(=O)=O)c2F)n1 [encorafenib]
Method in brief: as §1

[3] = compound: COC(=O)[C@H](CCSC)NC(=O)C1=C(C=C(C=C1)NC[C@H](CS)N)C2=CC=CC=C2
Method in brief: as §1

[4] = compound: COc1cc2nc(-c3cc(F)ccc3O)nc(N[C@@H]3CNC[C@H]3C(C)(C)O)c2cc1OC
Method in brief: as §1

lapatinib = compound: CS(=O)(=O)CCNCc1ccc(-c2ccc3ncnc(Nc4ccc(OCc5cccc(F)c5)c(Cl)c4)c3c2)o1 [lapatinib]
Method in brief: as §1

crizotinib = compound: C[C@@H](Oc1cc(-c2cnn(C3CCNCC3)c2)cnc1N)c1c(Cl)ccc(F)c1Cl [crizotinib]
Method in brief: as §1

[5] = compound: C[C@H](C1=CC=C(C=C1)C(=O)NC2=C3C=CNC3=NC=C2)N
Method in brief: as §1

duvelisib = compound: C[C@H](Nc1ncnc2nc[nH]c12)c1cc2cccc(Cl)c2c(=O)n1-c1ccccc1 [duvelisib]
Method in brief: as §1

gandotinib = compound: Cc1cc(Nc2cc(CN3CCOCC3)c3nc(C)c(Cc4ccc(Cl)cc4F)n3n2)n[nH]1 [gandotinib]
Method in brief: as §1

tozasertib = compound: Cc1cc(Nc2cc(N3CCN(C)CC3)nc(Sc3ccc(NC(=O)C4CC4)cc3)n2)n[nH]1 [tozasertib]
Method in brief: as §1

doramapimod = compound: Cc1ccc(-n2nc(C(C)(C)C)cc2NC(=O)Nc2ccc(OCCN3CCOCC3)c3ccccc23)cc1 [doramapimod]
Method in brief: as §1

[6] = compound: Cc1cccc(CC(=O)N2CCc3c2ccc(-c2cn(C)c4ncnc(N)c24)c3F)n1
Method in brief: as §1

alisertib = compound: COc1cc(Nc2ncc3c(n2)-c2ccc(Cl)cc2C(c2c(F)cccc2OC)=NC3)ccc1C(=O)O [alisertib]
Method in brief: as §1

gefitinib = compound: COc1cc2ncnc(Nc3ccc(F)c(Cl)c3)c2cc1OCCCN1CCOCC1 [gefitinib]
Method in brief: as §1

pictilisib = compound: CS(=O)(=O)N1CCN(Cc2cc3nc(-c4cccc5[nH]ncc45)nc(N4CCOCC4)c3s2)CC1 [pictilisib]
Method in brief: as §1

bafetinib = compound: Cc1ccc(NC(=O)c2ccc(CN3CC[C@H](N(C)C)C3)c(C(F)(F)F)c2)cc1Nc1nccc(-c2cncnc2)n1 [bafetinib]
Method in brief: as §1

Measured: log2 fold change

S100A6 (UniProt P06703)
inactive: alvocidib 0.084 | Tubastatin A -0.044 | [1] 0.018 | defactinib -0.017 | [2] -0.126 | encorafenib -0.173 | [3] 0.023 | [4] -0.038 | lapatinib 0.069 | crizotinib 0.119 | [5] 0.088 | duvelisib 0 | gandotinib 0.207 | tozasertib -0.038 | doramapimod -0.017 | [6] -0.119

RTN3 isoform 5 (UniProt O95197)
inactive: alvocidib 0.214 | Tubastatin A 0.12 | [1] 0.128 | defactinib 0.102 | [2] 0.005 | encorafenib 0.045 | [3] 0.056 | alisertib 0.04 | [4] -0.022 | gefitinib -0.046 | lapatinib -0.109 | pictilisib -0.065 | crizotinib -0.023 | [5] -0.039 | duvelisib 0.008 | gandotinib 0.077 | tozasertib -0.082 | doramapimod -0.051 | bafetinib -0.124 | [6] -0.009

RUFY3 isoform 2 (UniProt Q7L099)
inactive: alvocidib 0.1 | Tubastatin A -0.172 | [1] -0.018 | [2] -0.03 | [4] 0.067 | lapatinib -0.117 | pictilisib -0.032 | crizotinib 0.068 | [5] 0.409 | duvelisib 0.04 | gandotinib -0.106 | doramapimod -0.216 | bafetinib -0.064 | [6] -0.062

RYBP (UniProt Q8N488)
inactive: alvocidib -0.116 | Tubastatin A 0.029 | [1] -0.068 | defactinib 0.075 | [2] 0.001 | encorafenib -0.001 | [3] 0.005 | alisertib -0.009 | [4] 0.004 | gefitinib 0.028 | lapatinib 0.024 | pictilisib 0.05 | crizotinib -0.013 | [5] -0.027 | duvelisib 0.009 | gandotinib 0.012 | tozasertib -0.016 | doramapimod 0.069 | bafetinib -0.006 | [6] 0.096

RTL10 (UniProt Q7L3V2)
inactive: alvocidib 0.05 | Tubastatin A 0.063 | [1] -0.042 | defactinib 0.08 | [2] 0.009 | encorafenib 0.031 | [3] -0.041 | alisertib 0.065 | gefitinib -0.233 | pictilisib -0.03 | crizotinib -0.028 | [5] 0 | duvelisib -0.004 | gandotinib -0.107 | tozasertib -0.015 | doramapimod -0.023 | bafetinib 0.042 | [6] 0.074

RPSA (UniProt P08865)
inactive: alvocidib 0.005 | Tubastatin A 0.038 | [1] -0.025 | defactinib -0.037 | [2] -0.018 | encorafenib -0.026 | [3] 0.058 | alisertib 0.019 | [4] -0.003 | gefitinib -0.001 | lapatinib -0.007 | pictilisib 0.038 | crizotinib -0.046 | [5] -0.03 | duvelisib 0.002 | gandotinib -0.009 | tozasertib 0.017 | doramapimod -0.006 | bafetinib -0.017 | [6] 0.035

RPP14 (UniProt O95059)
inactive: alvocidib -0.028 | Tubastatin A 0.003 | [1] 0.016 | defactinib 0.088 | encorafenib -0.054 | [3] -0.043 | alisertib -0.014 | [4] -0.034 | gefitinib -0.097 | lapatinib 0.003 | pictilisib -0.022 | crizotinib -0.044 | [5] 0.027 | gandotinib 0.02 | tozasertib 0.012 | doramapimod 0.093 | bafetinib -0.035 | [6] -0.05

RPL6 (UniProt Q02878)
inactive: alvocidib 0.046 | Tubastatin A 0.005 | [1] 0.001 | defactinib -0.017 | [2] 0.027 | encorafenib -0.014 | [3] 0.008 | alisertib 0.016 | [4] -0.002 | gefitinib -0.06 | lapatinib -0.012 | pictilisib -0.011 | crizotinib 0.006 | [5] 0.014 | duvelisib 0.013 | gandotinib -0.014 | tozasertib -0.025 | doramapimod -0.015 | bafetinib 0.011 | [6] -0.051
